Laboratory results: the supplement of paper PMC4604168 (melanoma cell lines)
Some of the results follow. Many values rest on one well or one pass, so single values are uncertain.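 The apoptosis fraction was the count of cleaved-PARP antibody-stained nuclei relative to all DNA-stained nuclei, imaged in 1,536-well plates. Screening doses were set so most cells survived, and baseline and induced cleaved-PARP levels vary greatly across cell lines.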

tested on: WM1745; assay: cleaved PARP positive nuclei fraction relative to DMSO control; melanoma cells; higher = more apoptosis; conditions: library dose: low library concentration; 72 h

Question: Which “cleaved PARP positive nuclei fraction” value does the source give for `C[C@]12O[C@H](C[C@]1(O)CO)n1c3ccccc3c3c4c(c5c6ccccc6n2c5c31)CNC4=O` [Lestaurtinib] + Oc1nc(-c2ccc(C(F)(F)F)cc2)nc2c1CSCC2 [XAV939] (first compound 0.004 µM, partner dose 2 µM) here?
Answer: 119%

Question: How did the “cleaved PARP positive nuclei fraction” value turn out when `CCCCCCCCCCCCCCCCCCOP(=O)([O-])OC1CC[N+](C)(C)CC1` [Perifosine] + Cn1cc(C2=C(c3cn(C4CCN(Cc5ccccn5)CC4)c4ccccc34)C(=O)NC2=O)c2ccccc21 [Enzastaurin] (first compound 0.4 µM, partner dose 0.8 µM) was run?
Answer: 84.8%

Question: How did the “cleaved PARP positive nuclei fraction” value turn out when `COc1cc2ncnc(Nc3ccc(Oc4ccccc4)cc3)c2cc1OC` + C/C(O)=C(\C#N)C(=O)Nc1cc(Br)ccc1Br [LFM-A13] (first compound 2 µM, partner dose 2 µM) was run?
Answer: 110%

Question: Which “cleaved PARP positive nuclei fraction” value does the source give for `C[C@]12O[C@H](C[C@]1(O)CO)n1c3ccccc3c3c4c(c5c6ccccc6n2c5c31)CNC4=O` [Lestaurtinib] + CCN(CC)CCCCNc1ncc2cc(-c3cc(OC)cc(OC)c3)c(NC(=O)NC(C)(C)C)nc2n1 [PD173074] (first compound 0.004 µM, partner dose 0.1 µM) here?
Answer: 105%

Question: With `NC(=O)Nc1cc(-c2cccc(F)c2)sc1C(=O)N[C@H]1CCCNC1` + C/C(O)=C(\C#N)C(=O)Nc1cc(Br)ccc1Br [LFM-A13] (first compound 0.02 µM, partner dose 2 µM) as the compound, how does the “cleaved PARP positive nuclei fraction” value read?
Answer: 208%

Question: How did the “cleaved PARP positive nuclei fraction” value turn out when `Cc1ccc(Nc2nccc(N(C)c3ccc4c(C)n(C)nc4c3)n2)cc1S(N)(=O)=O` [Pazopanib] + Cn1cc(C2=C(c3cn(C4CCN(Cc5ccccn5)CC4)c4ccccc34)C(=O)NC2=O)c2ccccc21 [Enzastaurin] (first compound 0.4 µM, partner dose 0.8 µM) was run?
Answer: 107%
